Earlier results in patent US9089544B2, “Composition” (Slotervaart Participaties BV, priority 2007, dated 2015).
Some results were stated once for a whole list of compounds, not compound by compound.

Details: in vivo; cited from earlier work

Q: With CC(=O)O[C@@]12CO[C@@H]1C[C@H](O)[C@@]1(C)C(=O)[C@H](O)C3=C(C)[C@@H](OC(=O)[C@H](O)[C@@H](NC(=O)OC(C)(C)C)c4ccccc4)C[C@@](O)([C@@H](OC(=O)c4ccccc4)[C@H]21)C3(C)C [docetaxel] as the molecule, how does the oral bioavailability read?
A: The oral bioavailability was “less than 10%”.
